From patent US8299034B2, “Nutritional compositions for promotion of bone growth and maintenance of bone health comprising extracts of for example rosemary or caraway” (Nestec S.A., priority 2008, dated 2012)
For at least one compound, name, drawing or mass did not settle the structure.

Test system: bone formation
Experiment: Bone formation bioassays, assay not specified (anabolic potential)
From the text: The following bioassays were used for bone formation analysis • BMP-2 gene reporter assay (high throughput screen) • Alkaline phosphatase in osteoblast cells • Calvaria organ culture in vitro, bone formation • Injection into calvaria in vivo, bone formation.
For example, extracts were screened for bone formation by a high throughput gene reporter assay for BMP-2 followed by an alkaline phosphatase assay and an organ culture model and finally by injection into mice calvaria in vivo. Subfractions of positive extracts and/or pure compounds were further tested for activity.
The rosemary plant extracts and the pure compounds were tested in an osteoblast/osteoclast co-culture system.

**Q.** With O=C(O)[C@H]1O[C@@H](Oc2cc3oc(-c4ccc(O)cc4)cc(=O)c3c(O)c2O)[C@H](O)[C@@H](O)[C@@H]1O [scutellarin] as the molecule, how does the anabolic potential read?
**A.** anabolic potential
